Assays:
Aspergillus niger = assay: Antifungal activity against Aspergillus niger ATCC 10949 at 100 U/disk after 72 hr by disk diffusion method; type: functional, organism-based
Candida albicans = assay: Antifungal activity against Candida albicans ATCC 10231 at 100 U/disk after 48 hr by disk-diffusion method; type: functional, organism-based

NYSTATIN showed an inhibition zone (IZ) (Aspergillus niger) of 22 mm and an inhibition zone (IZ) (Candida albicans) of 20 mm.

Reference: ChEMBL document CHEMBL3044875, “Synthesis and antimicrobial activity of some bisoctahydroxanthene-1,8-dione derivatives” (2011)
